Where “and” joins values, the source holds several entries; their conditions need not be identical. Equal entries are not always repeated. Screen size: about 400,000 compounds; about 13,000 (3.2%) were called active. Inconclusive results, whose numbers are uncertain, are shown with a selection of clear calls. The call rests on the fitted dose curve; in most records, active means well fitted cell-killing curve with a large enough effect; inconclusive means small, poorly fitted or top-dose-only effect, or effect the other way; inactive means flat fitted curve, though single readings scatter. Potencies of inconclusive entries are doubtful fits and often do not repeat.
Test: qHTS assay for MDR1-selective chemotherapeutics: Primary screen using the drug-selected MDR subline cells KB-V1; further: nearly all actives have a fitted effect of over 60% in size
Conditions: KB-V1 MDR cells viability, CellTiter-Glo, 72 h; activity change, negative = cytotoxicity: at 46.1 µM (top of the series)
Summary of the method: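 qHTS viability screen in drug-selected KB-V1 MDR cells: 72 h compound treatment at 37 degrees C, ATP luminescence end point.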
On the % scale 0 is the no-effect control and ±100 the full control effect; potency means the concentration at half of the fitted maximal effect.

| SMILES | Potency | activity change, negative = cytotoxicity |
| --- | --- | --- |
| CSc1nnc(-c2cc[n+](C)cc2)n1CCO | inconclusive: 25.9 µM [rising, single point] |  |
| CC(O)c1ccc(OCCN(C)c2ccccn2)cc1 (configuration not stated) | inconclusive: 1.16 µM [rising, partial curve, poor fit] |  |
| Cc1occc1-c1nnc(SCC(=O)NCCc2ccccc2)n1Cc1ccccc1 | inconclusive: 16.4 µM [cytotoxic, partial curve] |  |
| COC(=O)c1ccc(C2C(C(=O)c3ccco3)=C(O)C(=O)N2c2cc(C)on2)cc1 (configuration not stated) | inconclusive: 29.1 µM [rising, single point] |  |
| Cc1cccnc1N(C(=O)Nc1cccc(Cl)c1)C1=NCC(C)(C)S1 | inconclusive: 18.4 µM [cytotoxic, single point] |  |
| O=C(NCc1ccc(Cl)c(Cl)c1)c1cc(C2CCCCN2C(=O)C2CCCCC2)on1 (configuration not stated) | inconclusive: 23.1 µM [cytotoxic, single point] |  |
| COc1cc(C2CC(=O)Nc3c2c(=O)n(C)c(=O)n3C)cc(OC)c1OC (configuration not stated) | inactive |  |
| CCCn1c(SCC(=O)NCCc2ccccc2)nnc1C(C)C | inactive |  |
| CCN(CC)CCNc1nc(SC)nc2sc3c(c12)CCN(C)C3 | inconclusive: 10.3 µM [cytotoxic, partial curve, poor fit] |  |
| NC(=O)c1[nH]cnc1N | inactive |  |
| CCc1ccccc1N(CC(=O)N1CCN(c2ccc(F)cc2)CC1)S(C)(=O)=O | inconclusive: 16.4 µM [cytotoxic, single point] |  |
| C[C@@H]1CCC(=O)N(CC[C@H](Oc2ccccc2)c2ccccc2)CC1 | inconclusive: 8.2 µM [cytotoxic, partial curve] and inconclusive: 29.1 µM [cytotoxic, single point] |  |
| CCOC(=O)c1cccc(NC(=O)CCCn2c(C)c3cnn(-c4ccccc4)c(=O)c3c2C)c1 | inactive |  |
| C/C(=N\NC(=S)NC1CCCCC1)c1ccc(C#N)cc1 | inactive |  |
| CC(C)C[C@H]1CN([C@@H](Cc2ccc(O)cc2)CN2CCC[C@@H]2CN2C(=S)NC[C@@H]2Cc2ccccc2)C(=S)N1CCc1ccccc1 | inconclusive: 29.1 µM [cytotoxic, single point] |  |
| O=C1CN(CC(=O)NC2CCCc3ccccc32)CCN1 (configuration not stated) |  | inconclusive: 35.1% |
| Cc1ccc(NC(=O)c2cc3c(=O)[nH]c4ccccc4c3n2C)cc1F | inconclusive: 29.1 µM [rising, single point] |  |
| Cc1cc(C)c(C(=O)Cn2cnc3cc([N+](=O)[O-])ccc3c2=O)cc1C | inactive |  |
| COc1ccc(-c2cc(C(C)=O)c(C)n2CCC(=O)NCc2ccc(F)cc2)cc1 | inactive |  |
| Cc1csc(NC(=O)c2ccc(Cl)nc2)n1 | inactive |  |
| O=C1/C(=C/c2cccnc2)SC(=S)N1C1CCS(=O)(=O)C1 (configuration not stated) | inconclusive: 16.4 µM [cytotoxic, single point] |  |
| Cc1c(O)ccc(C(=O)CN2CCN(Cc3ccc4c(c3)OCO4)CC2)c1O | active: 23.1 µM |  |
| CCOc1ccc(Br)cc1S(=O)(=O)N1CCSC1 | inconclusive: 8.2 µM [cytotoxic, partial curve] |  |
| CC(C)c1nnc(-c2ccc(Cl)cc2)c(N(C)C)n1 | active: 20.6 µM |  |

| SMILES | Potency | activity change, negative = cytotoxicity |
| --- | --- | --- |
| O=C(C1CCCCC1)N1CCN(S(=O)(=O)c2cccc([N+](=O)[O-])c2)CC1 | inactive |  |
| N#C/C(=C\N1CCN(Cc2ccc3c(c2)OCO3)CC1)c1nc2ccccc2s1 | active: 20.6 µM |  |
| CC(=O)c1ccccc1-c1csc2ncnc(Sc3nnnn3C)c12 | inconclusive: 29.1 µM [cytotoxic, single point] |  |
| CC(=O)N1CCN(S(=O)(=O)c2cccc(C(=O)Nc3nc4ccccc4[nH]3)c2)CC1 | inconclusive: 18.4 µM [rising, partial curve, poor fit] |  |
| O=C(O)c1cccc(NC(=S)NC(=O)C(c2ccccc2)c2ccccc2)c1 | inconclusive: 29.1 µM [rising, single point] |  |
| COc1ccccc1NC(=O)Nc1nc(CC(=O)N2CCN(c3ccccc3)CC2)cs1 | inconclusive: 32.6 µM [cytotoxic, single point] |  |
| CCOC(=O)c1sc(NC(=O)CS(=O)(=O)c2ccc(C)cc2)nc1C | inconclusive: 29.1 µM [cytotoxic, single point] |  |
| O=C1C=CC(=O)c2c(O)c(CO)c(CO)c(O)c21 | inactive |  |
| COc1ccc2c(C(=O)c3ccc(Cl)cc3)n(CCCC(N)=O)[n+]([O-])c2c1 | inactive |  |
| CCOC(=O)c1oc2ccccc2c1NC(=O)Cc1cccs1 | active: 14.6 µM |  |
| O=C1C(Cl)=C(NCCN2CCCCC2)C(=O)c2ccccc21 | inconclusive: 29.1 µM [cytotoxic, single point] |  |
| COCCn1c(Cc2ccccc2)nnc1SCC(=O)NC1CC1 | inconclusive: 18.4 µM [rising, single point] |  |
| CCOC(=O)C1CCN(C(=O)Cn2cc(C(=O)C3CC3)c3ccccc32)CC1 | inconclusive: 5.17 µM [cytotoxic, partial curve, poor fit] |  |
| CC(=O)c1ccc(S(=O)(=O)N2CCN(c3ccccc3F)CC2)cc1 | inconclusive: 20.6 µM [cytotoxic, single point] |  |
| CC[C@]12CCCN3CCc4c(n(c5ccccc45)C(=O)C1)[C@@H]32 | active: 4.11 µM |  |
| COC(=O)CNC(c1ccccc1)c1cc(Br)ccc1NC(=O)CCN1CCOCC1 (configuration not stated) | inconclusive: 29.1 µM [cytotoxic, single point] |  |
| CCN(CC)c1cc2c(cc1F)c(=O)c(S(=O)(=O)c1ccccc1)cn2Cc1ccccc1 | inconclusive: 20.6 µM [cytotoxic, partial curve, poor fit] |  |
| Cc1ccc(C(=O)NC2CCCC2)cc1S(=O)(=O)N1CCCCC1 | inactive |  |
| COc1ccc(CCNC(=O)NCc2noc3ccc(C)cc23)c(OC)c1 | inactive |  |
| CC(=O)c1cccc(NS(=O)(=O)c2c(C)nc3sc(C)cn3c2=O)c1 | inactive |  |
| OCCOCCNc1ncnc2sc(-c3ccccc3)cc12 | inconclusive: 25.1 µM [cytotoxic, single point] |  |
| O=[N+]([O-])c1cccc(CSc2nnc(Cc3ccccc3)n2-c2ccc(F)cc2)c1 | inconclusive: 23.1 µM [cytotoxic, single point] |  |
| CCC(C)N1C(=O)CCC1C(=O)N1CCN(c2ccccc2F)CC1 (configuration not stated) | inconclusive: 13 µM [cytotoxic, partial curve] |  |
| Cc1nc2ccccn2c1C(=O)/C=C/c1ccc(F)cc1 | active: 16.4 µM |  |

| SMILES | Potency | activity change, negative = cytotoxicity |
| --- | --- | --- |
| Cc1ccc(Nc2nc(COC(=O)C3CC3)cs2)cc1 | inconclusive: 29.1 µM [rising, single point] |  |
| Cc1ccc(S(=O)(=O)N(CC(=O)NC2CCCC2)c2cccc(C)c2)cc1 | active: 4.11 µM |  |
| CN(CC(=O)Nc1nc2ccc(F)cc2s1)S(=O)(=O)c1ccc(Cl)cc1 | inconclusive: 16.4 µM [cytotoxic, single point] |  |
| O=C(O)/C=C/c1ccc2ccccc2n1 | inactive |  |
| CN1CCN(c2ccccc2NC(=O)c2ccc(-c3ccc(Br)cc3)o2)CC1 | inconclusive: 29.1 µM [cytotoxic, single point] |  |
| CCc1nc2c(OCCn3cccc3)cccn2c1N(C=O)Cc1ccc(OC)cc1 | inconclusive: 9.2 µM [cytotoxic, single point] |  |
| Cc1ccc(Nc2nc(N)c([N+](=O)[O-])c(N3CCC(C)CC3)n2)cc1C | active: 23.1 µM |  |
| CCCOc1cccc(C(=O)N(Cc2cc(OC)c(OC)c(OC)c2)C2CCS(=O)(=O)C2)c1 (configuration not stated) | inconclusive: 29.1 µM [rising, single point] |  |
| O=C(CSc1nnc(NC(=O)C2CCC2)s1)Nc1ccccc1F | inconclusive: 16.4 µM [cytotoxic, partial curve, poor fit] |  |
| NS(=O)(=O)c1cccc(NC(=O)CSc2nn(-c3ccccc3)c(=S)s2)c1 | inactive |  |
| O=C(Nc1ccc(F)cc1F)N1CCN(CCc2ccccc2)CC1 | inactive |  |
| COC(=O)c1ccc(COC(=O)c2cc3ccccc3oc2=O)cc1 | inconclusive: 18.4 µM [rising, single point] |  |
| Cc1ccc2oc(=O)c3cc(C(=O)NCc4ccco4)sc3c2c1 | inconclusive: 29.1 µM [rising, single point] |  |
| CSc1nc2c(c(-c3ccc(O)cc3)c1C#N)CCC2 | inactive |  |
| O=C1c2ccccc2C(Nc2cccnc2)N1Cc1ccccc1 (configuration not stated) | inactive |  |
| COC(=O)c1ccc2nc(-c3ccc(C)cc3)c(Cc3ccsc3)n2c1 | inconclusive: 23.1 µM [cytotoxic, single point] |  |
| c1ccn2c(CNc3ncnc4sccc34)nnc2c1 | inconclusive: 29.1 µM [cytotoxic, single point] |  |
| CC(NC(=O)c1ccco1)C(=O)OCC(=O)N1CCCCCC1 (configuration not stated) | inconclusive: 29.1 µM [rising, single point] |  |
| Cc1ccc(CS(=O)(=O)CCC(=O)NCc2ccccc2Cl)cc1 | inconclusive: 29.1 µM [cytotoxic, single point] |  |
| COc1cccc(CN(CC2CCCO2)S(=O)(=O)c2ccc(-n3cnnn3)c(OC)c2)c1 (configuration not stated) | inconclusive: 9.2 µM [cytotoxic, partial curve] |  |
| COc1ccnc(Oc2ccccc2)c1C(=O)N/C=N/OCc1ccccc1F | inconclusive: 14.6 µM [cytotoxic, partial curve, poor fit] |  |
| Cc1cccc(/C=N/NC(=O)c2ccccc2OCc2cccc(Br)c2)n1 | inactive |  |
| O=C(c1cnn2c(C(F)F)cc(-c3ccccc3)nc12)N1CCc2ccccc21 | inactive |  |
| COc1ccccc1NC(=S)N1CCNC(=O)C1CC(=O)Nc1cccc(C)c1 (configuration not stated) |  | inconclusive: 29.8% |

Some values from the list.
Under Potency, `CCCOc1cccc(C(=O)N(Cc2cc(OC)c(OC)c(OC)c2)C2CCS(=O)(=O)C2)c1` (configuration not stated) is listed with inconclusive: 29.1 µM [rising, single point]
Under Potency, `CC(NC(=O)c1ccco1)C(=O)OCC(=O)N1CCCCCC1` (configuration not stated) is listed with inconclusive: 29.1 µM [rising, single point]
Under Potency, `O=C1c2ccccc2C(Nc2cccnc2)N1Cc1ccccc1` (configuration not stated) is listed with inactive

— PubChem BioAssay AID1347076 (National Center for Advancing Translational Sciences (NCATS), 2019)
